Laboratory results as given in the supplement of paper PMC10338343.
± gives the standard deviation. Only a part is listed here, and it is no random draw. Many of these values have a large error.

What follows are sequences tested on MILI (PIWIL2) piRISC loaded with piRNA #1 (26 nt) (assay: pre-steady-state target cleavage rate (min^-1); MIWI and MILI are mouse PIWI proteins and EfPiwi is from a freshwater sponge; tags in brackets are library labels; higher = faster piRNA-guided slicing of the target). Details: guide: piRNA #1 5'p-UGAGGUAGUAGGUUGUAUAGUAUCCA; auxiliary factor: 500 nM mouse GTSF1.
Outline: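 In Cleave-'n-Seq, a transcribed, DNA-blocked target RNA library (0.1 nM) was combined with 1 nM active affinity-purified piRISC bearing one synthetic guide, with or without 500 nM GTSF1 partner protein. Reactions ran in HEPES–potassium acetate buffer at 33 °C for 0–8 or 0–960 min. Uncleaved targets were sequenced and normalised to depth and to weakly complementary targets, three trials were pooled, and k3 was capped at 0.0001 min^-1. The pre-steady-state cleavage rate was obtained by fitting a burst-and-steady-state model.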

Question: Which “pre-steady-state target cleavage rate” value does the source give for GGAGACCUAACUAUACAACCUACAACCUGA here?
Answer: Its value is 0.00865 ± 0.0074.

Question: With GGAGAGGAUACAAUACAUCCUACUACCUCA as the sequence, how does the “pre-steady-state target cleavage rate” value read?
Answer: The value was 0.239 ± 0.021.

Question: GGAGACCUAACUAUACAAACUACUACCUCA was tested. Which “pre-steady-state target cleavage rate” value did it give?
Answer: Its value is 0.248 ± 0.025.

Question: How did the “pre-steady-state target cleavage rate” value turn out when GGAGACGAUACUUUACAACGUACUACCUCA was run?
Answer: The value was 0.0294 ± 0.0045.

Question: GGAGACCUAUGAUAUGUACCAACUACCUCA was tested. Which “pre-steady-state target cleavage rate” value did it give?
Answer: The value was 0.000149 ± 0.017.

Question: With GGAGACGAUACAAUACAUCCUACUACCUCA as the sequence, how does the “pre-steady-state target cleavage rate” value read?
Answer: Its value is 0.312 ± 0.016.

Question: Which “pre-steady-state target cleavage rate” value does the source give for GGAGUGGAUUGAAUACAACCUACUACCUCA here?
Answer: Its value is 0.0713 ± 0.0073.

Question: For GGAGACCUAUGUAUACAACCUACUACUCUCA, which “pre-steady-state target cleavage rate” value is on record?
Answer: The value was 0.117 ± 0.013.

Question: With GGAGACCUAUGAUAUGUUGGUACUACGUGA as the sequence, how does the “pre-steady-state target cleavage rate” value read?
Answer: The value was 0.000255 ± 0.017.

Question: How did the “pre-steady-state target cleavage rate” value turn out when “GGAGACCUUACUAUACAACCUAGAUGGAGA [g9:g22:cont:t1A]” was run?
Answer: The value was 0.00111 ± 0.0054.

Question: Which “pre-steady-state target cleavage rate” value does the source give for GGAGACCUAUGAUAUCUACCUACUACCUCA here?
Answer: Its value is 0.000308 ± 0.0076.

Question: GGAGACCUAUGAUAUCAACCUUCUUCCUCA was tested. Which “pre-steady-state target cleavage rate” value did it give?
Answer: The value was 0.000201 ± 0.015.

Question: Which “pre-steady-state target cleavage rate” value does the source give for GGAGAGGAUACUUUACAUCCUACUACCUCA here?
Answer: Its value is 0.253 ± 0.016.

Question: For GGAGAGGAUACCAUACAACCUACUACCUCA, which “pre-steady-state target cleavage rate” value is on record?
Answer: Its value is 0.167 ± 0.021.

Question: With GGAGACCUUUCUAUACAUCCUACUACCUCA as the sequence, how does the “pre-steady-state target cleavage rate” value read?
Answer: Its value is 0.158 ± 0.013.

Question: For GGAGACCUAACUAUACAACCUUCUACCUCA, which “pre-steady-state target cleavage rate” value is on record?
Answer: The value was 0.00302 ± 0.0055.

Question: How did the “pre-steady-state target cleavage rate” value turn out when GGAGAGGAUAGUAUACAACCUACUUCCUCA was run?
Answer: Its value is 0.00152 ± 0.006.

Question: For GGAGACCUAUGAUAUGUACCUACUGCCUCA, which “pre-steady-state target cleavage rate” value is on record?
Answer: The value was 0.000148 ± 0.02.

Question: How did the “pre-steady-state target cleavage rate” value turn out when GGAGAGGAUACUAUACUACCUACUACCUCA was run?
Answer: The value was 0.173 ± 0.011.

Question: GGAGACCUAUGAAUUCAACCUACUACCACA was tested. Which “pre-steady-state target cleavage rate” value did it give?
Answer: Its value is 0.00146 ± 0.0038.

Question: GGAGUGGAUACUAUACAACCUACUGACCUCA was tested. Which “pre-steady-state target cleavage rate” value did it give?
Answer: Its value is 0.0789 ± 0.011.

Question: How did the “pre-steady-state target cleavage rate” value turn out when GGAGACCAUACUAUACAUCCUACUACCACA was run?
Answer: The value was 0.279 ± 0.028.

Question: For GGAGACCUAUGAUAAGAACCUACUACCUGA, which “pre-steady-state target cleavage rate” value is on record?
Answer: The value was 0.000108 ± 0.027.

Question: GGAGACCUAUGAUAUCAACCUACUACCUACA was tested. Which “pre-steady-state target cleavage rate” value did it give?
Answer: Its value is 0.0017 ± 0.0034.

Question: How did the “pre-steady-state target cleavage rate” value turn out when GGAGACCUAUGAUAUGUUGGUACUACCGUCA was run?
Answer: Its value is 0.000271 ± 0.028.

Question: With GGAGACCAUACUAUACAACCCACUACCUCA as the sequence, how does the “pre-steady-state target cleavage rate” value read?
Answer: Its value is 0.0223 ± 0.0041.

Question: How did the “pre-steady-state target cleavage rate” value turn out when GGAGACCUAUGAUAUCAAGCUAGUACCUCA was run?
Answer: The value was 0.000951 ± 0.008.

Question: With GGAGACCUAUGAUAUGUUGGUACUACCCA as the sequence, how does the “pre-steady-state target cleavage rate” value read?
Answer: The value was 0.000156 ± 0.034.

Question: With GGAGAGGAUACUAUUCAUCCUACUACCUCA as the sequence, how does the “pre-steady-state target cleavage rate” value read?
Answer: The value was 0.273 ± 0.02.

Question: Which “pre-steady-state target cleavage rate” value does the source give for GGAGACCUAUGAUUUCUACCUACUACCUCA here?
Answer: Its value is 0.000279 ± 0.014.

Question: For GGAGACCAUACUAUACACACCUACUACCUCA, which “pre-steady-state target cleavage rate” value is on record?
Answer: Its value is 0.00242 ± 0.0055.

Question: How did the “pre-steady-state target cleavage rate” value turn out when GGAGACGAUACUAUACAACCUUACUACCUCA was run?
Answer: The value was 0.00239 ± 0.0042.

Question: For GGAGACCUUACUAUUGAACCUACUACCUCA, which “pre-steady-state target cleavage rate” value is on record?
Answer: The value was 0.137 ± 0.013.

Question: How did the “pre-steady-state target cleavage rate” value turn out when GGAGACGUUACUAUACAUCCUACUACCUCA was run?
Answer: Its value is 0.293 ± 0.018.

Question: GGAGACGAUACUAUACAACCUACUACGAGA was tested. Which “pre-steady-state target cleavage rate” value did it give?
Answer: Its value is 0.11 ± 0.034.

Question: Which “pre-steady-state target cleavage rate” value does the source give for GGAGACCUAUCUAUAGAUCCUACUACCUCA here?
Answer: The value was 0.144 ± 0.017.

Question: Which “pre-steady-state target cleavage rate” value does the source give for GGAGACCUAUGAUAUGUACCUACUACCUCA here?
Answer: The value was 0.000125 ± 0.019.

Question: GGAGACCAUACAUAACAACCUACUACCUCA was tested. Which “pre-steady-state target cleavage rate” value did it give?
Answer: The value was 0.0246 ± 0.0068.

Question: For GGAGACCUAUGAUUAGAACCUACUACCACA, which “pre-steady-state target cleavage rate” value is on record?
Answer: Its value is 0.000225 ± 0.015.

Question: How did the “pre-steady-state target cleavage rate” value turn out when “GGAGACCUAUGUAUACAACGAUGAUGGAGA [g12:g19:cont:t1A]” was run?
Answer: Its value is 0.000293 ± 0.018.
